# Measurements taken from patent publication US10980460B2, “Identification, diagnosis, and treatment of neuropathologies, neurotoxicities, tumors, and brain and spinal cord injuries using electrodes with microvoltammetry” (Research Foundation of The City University of New York, priority 2001, dated 2021).
# For at least one compound, name, drawing or mass did not settle the structure.
# How the values were obtained:
# [1] = system: 5-HT release in basal nucleus A10 terminals, vlNAcc; assay: In vivo microvoltammetry of 5-HT release in vlNAcc (A10 terminals) with simultaneous open-field behavior, after cocaine; set-up: species or system male, Sprague-Dawley laboratory rat; conditions: cocaine 10 mg/kg ip
# [2] = system: locomotor and stereotypic movement; assay: Open-field movement behaviors (ambulations, fine movements) by infrared photobeam monitoring, after cocaine; format: in vivo, male, Sprague-Dawley laboratory rat
# [3] = system: 5-HT release in A10 somatodendrites, VTA; assay: In vivo microvoltammetry of 5-HT release in VTA (A10 somatodendrites) with simultaneous open-field behavior, after cocaine; set-up: species or system male, Sprague-Dawley laboratory rat
smiles,measurement,setting,value
COC(=O)[C@H]1[C@@H](OC(=O)c2ccccc2)C[C@@H]2CC[C@H]1N2C [cocaine],magnitude of the 5-HT increase after cocaine vs natural movement without cocaine,"[1]; NAcc, same animal control",significantly less than 5-HT released and observed during natural movement without cocaine
same,5-HT levels in NAcc after cocaine,[1]; freely moving rat,still increase
same,temporal synchrony between 5-HT release in vlNAcc and movement behaviors,"[1]; freely moving rat, two hour study, same animal control",disrupted
same,cocaine-induced behaviors after habituation,"[2]; cocaine 10 mg/kg ip, ambulations and fine movements",still increased
same,cocaine-induced movement vs movement without cocaine,[2]; same animal before and after cocaine,not significantly increased over movement without cocaine
same,serotonin release in VTA after cocaine vs habituation,[3]; freely moving rat,increased when compared with habituation behavior
same,magnitude of the 5-HT increase in VTA after cocaine vs normal movement without cocaine,[3]; same animal control,smaller than observed during nonnal movement without cocaine
same,temporal synchrony between 5-HT release in A10 somatodendrites (VTA) and movement behaviors,"[3]; subcutaneous injection per FIG. 11 legend, four hour study, same animal control",disrupted
